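Viability assay of Plasmodium falciparum sporozoites; the read-out is not stated. The concentration is filed as 10 mM, unlikely as a test dose, so the dose is not known. Higher reads as lower viability (inferred: compounds with an IC50 in retests scored well above the rest). Strong results were mostly tested again. Size under these conditions: about 34,000 compounds, about 280 of them at 50% or above in at least one test.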

Values are the deposited “Percent Effect”, in %.
The controls that fix the scale are not given in the record; negative values are as filed.
Compounds were drawn at random from those tested, without regard to their results.
Two or more numbers in one place are separate tests of the same structure; such repeats can differ widely.

SMILES	Percent Effect
CC(=O)N1CCc2c(nc(-c3ccncc3)nc2N(C)CC(O)CO)C1 (stereo not shown)	8.004
COc1cccc(COCC(=O)N2CCN(S(C)(=O)=O)CC2)c1	10.56
CC(C)(CNC(=O)OC(C)(C)C)NC(=O)C1CC(=O)N(C2CC2)C1 (stereo not shown)	2.537
CCc1noc(C(C)N2CCC(O)CC2)n1 (stereo not shown)	11.7
CC(C)(C)n1nnnc1CN(CCc1ccccc1)Cc1ccccc1	-12.55
O=C(C1CCOCC1)N1CC[C@@H](N2CCOCC2)[C@@H]1Cc1ccccc1	-8.029
O=C1CCCN1Cc1ncn2c1CN(C(=O)Cc1cccs1)CCC2	3.07
CCc1nc(CN(C)C2CCN(CCc3cccs3)C2)no1 (stereo not shown)	1.35
O=C(O)C(F)(F)F.[H][C@@]12COC[C@]1(C(=O)NCCc1cccs1)CN(C1CCOCC1)C2	9.796
CCSCCC(=O)NC1CCN(C(C)c2ccccc2)CC1 (stereo not shown)	3.622
CNc1cncc(C2CCCN2Cc2ccn(C)n2)n1 (stereo not shown)	-2.51
N#Cc1cn(C2CC2)c(=O)n(CC(O)c2ccccc2C(F)(F)F)c1=O (stereo not shown)	9.729
CCOC1CCN(C(=O)c2c(Cl)c3ccccc3n2C)CC1	-10.73
[H][C@]12CC[C@@H](Nc3cccnn3)[C@@]1([H])CN(Cc1ccc3[nH]ccc3c1)C2	-2.029
CCn1c(CN(C)C)nnc1C1CCN(Cc2ccc(Cl)c(F)c2)CC1	-7.456
CCn1c(CN2CCCC2)nnc1C1CCN(Cc2ccc(C)o2)CC1	-7.173
COc1ccc2[nH]cc(C(=O)N3C[C@@H](O)[C@H](N4CCCC4)C3)c2c1	8.992
O=C(c1csc(-c2ccco2)n1)N1CCOc2ncccc21	-13.51
CC(C)c1ccc(OCCC(=O)N2CCC(C(=O)N(C)C)CC2)cc1	-0.8937
CCc1noc(CN(CC)C(=O)CC2C(=O)NCCN2CC=C(C)C)n1 (stereo not shown)	-4.579
O=C(O)C(F)(F)F.O=C(O)C(F)(F)F.[H][C@@]12CCCO[C@]1([H])[C@H](Nc1ccccn1)CN(Cc1cc(C)on1)C2	4.383
O=C(O)C(F)(F)F.O=C1COC2(COCCN(Cc3ccsc3)C2)CN1c1ccoc1 (stereo not shown)	-4.866
Cc1ccc(C(N)c2cccc(S(C)(=O)=O)c2)cc1 (stereo not shown)	-6.127
O=C1NCCN(CC2CC2)C12CCN(Cc1ccc3c(c1)OCO3)CC2	-3.468
COc1ccc(C2=CCN(C(=O)C3CCN(C)C(=O)C3)CC2)cc1 (stereo not shown)	1.874
N#Cc1ccc(N2CCC3(CC2)CC(N2CCOCC2)CO3)cc1.O=C(O)C(F)(F)F (stereo not shown)	-0.1733
CSCCCN1CC[C@@H](NC(=O)c2cnccn2)[C@H](O)C1	-135.4
Cc1nc(-c2ccccc2)n(CC(=O)NC(C)C)n1	5.151
CCOCC(=O)NCc1cc(Br)ccc1OC(F)F	-11.03
NC(=O)C1CCN(CCc2ccc(NC(=O)C3CC3)cc2)CC1	-9.383
CCCN(CC(=O)NC)C(=O)c1ccc(-c2ccsc2)nc1C	-16.57
O=C(CCc1cc2n(n1)CCCN(Cc1ccccc1F)C2)NC1CC1	-28.44
Cc1ncsc1-c1nnc(C2CCCN2C(=O)Cn2cccn2)o1 (stereo not shown)	9.397
CCn1ccnc1CN1CCCC1Cn1cc(C)cn1 (stereo not shown)	-7.9
COCCC(=O)NCc1ccc(-c2ccccc2C(=O)O)cn1	1.395
COCCOCCNC(=O)N1CCN(c2ccccc2C#N)CC1	0.7718
O=C(O)C(F)(F)F.[H][C@@]12CCN(CC(=O)NC)C[C@]1([H])CN(C(=O)c1cccn1C)C2	-0.614
CC(C)(O)CN1CCN(C(=O)c2sccc2C#N)CC1	6.864
CN1CCC(CCc2ccnc(Nc3cnccn3)c2)CC1	-4.215
[H][C@@]12CN(C(=O)N(C)C)C[C@]1([H])C(=O)N(C)C21CCN(C(=O)CC(C)C)CC1	-8.896
CC(C)n1cc(CN2CCCN(C(=O)c3ccc[nH]3)CC2)cn1	3.833
Cc1ccccc1CNCC(O)c1ccc(OC(C)C)cc1 (stereo not shown)	-4.353
O=C(O)C(F)(F)F.[H][C@]12CCC[C@@H](CN(C)CCOC)[C@@]1([H])CN(c1ncccn1)C2	12.83
CC(Nc1ccc(CCN2CCOCC2)cc1)C(=O)N(C)CCC#N (stereo not shown)	3.671
CCN1CCC(N2CCN(C)C3(CCC(=O)N(CCOC)CC3)C2)CC1 (stereo not shown)	-5.077
COCc1nn(CC2CC2)c2c1CN(Cc1cncn1C)CC2.O=C(O)C(F)(F)F	8.725
Cc1cc(C)n(CCCNC(=O)C(C)NC(=O)c2ccccc2Cl)n1 (stereo not shown)	3.72
Cc1nc(C)n(CC2CCCCN2CCc2ccncc2)n1 (stereo not shown)	14.23
[H][C@]12CC[C@@]3(N=C(CC)N(C)C3=O)[C@@]1([H])CN(C(=O)NCc1ccccc1)C2	-2.796
CC(C)N(C)CC(=O)NC1CCc2nccn2C1 (stereo not shown)	4.936
COc1ccc(CC(=O)N2CCCCC2Cn2cccn2)cc1OC (stereo not shown)	-24.24 and -21.73 and -21.9
Cc1ccccc1-c1noc(CN2CCc3cncnc3C2)n1	11.17
N#Cc1cccc(N2CC3(CCN(C(=O)c4ccncc4)C3)CC2=O)c1.O=C(O)C(F)(F)F (stereo not shown)	-19.71
CC(Cn1cccn1)NC(=O)NCCc1ccsc1 (stereo not shown)	10.79
CC(NCc1ccccc1Br)c1ccc2[nH]c(=O)[nH]c2c1 (stereo not shown)	10.4
Cc1cccnc1CNC(=O)N(CCCO)C1CCc2ccccc21 (stereo not shown)	9.743
O=C(O)C(F)(F)F.[H][C@]12CN(Cc3cccnc3)C(=O)[C@@]1([H])CN(S(=O)(=O)c1ccccc1)C2	17.28
CC1(C)CC(N(Cc2ccccc2)Cc2ncc[nH]2)CC(C)(C)N1.O=C(O)CC(O)(CC(=O)O)C(=O)O	10.36
[H][C@]12CN(C(=O)CC3CCCC3)CCN1C[C@@H](CO)[C@@H]2c1ccccc1	-38.96

Once more, the final 3:

{"smiles": "O=C(O)C(F)(F)F.[H][C@]12CN(Cc3cccnc3)C(=O)[C@@]1([H])CN(S(=O)(=O)c1ccccc1)C2", "Percent Effect": 17.28}
{"smiles": "CC1(C)CC(N(Cc2ccccc2)Cc2ncc[nH]2)CC(C)(C)N1.O=C(O)CC(O)(CC(=O)O)C(=O)O", "Percent Effect": 10.36}
{"smiles": "[H][C@]12CN(C(=O)CC3CCCC3)CCN1C[C@@H](CO)[C@@H]2c1ccccc1", "Percent Effect": -38.96}

Measurements from “University of Dundee, Small-Polar-MMV Screening Library” (2021), ChEMBL document CHEMBL3988442.